Drawing on the supplement of paper PMC10735217, this text covers TEAD-luciferase reporter activity for 34 compounds.

Each structure is given as a SMILES string. Structures can show the parent of a compound that is named as a salt. This is one part of the list. Single values are uncertain here, since repeats match poorly.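 The human kidney-derived cells carry a stably integrated construct of eight TEAD-binding elements driving luciferase, read by luminescence in a drug-repurposing library screen. A compound counts as a hit when its signal is more than five robust Z scores above the plate mean.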

The assay relates to HEK293A TEAD-LUC reporter. The experiment in a line: TEAD-luciferase reporter activity (YAP activation), robust Z score vs plate; higher = stronger YAP/TEAD activation. The note with it: 24 h. Background: In a reporter assay the amount or activity of a reporter protein is the signal.

`O=C1NC(=O)C2(c3ccc(Cl)cc3)CC12` (configuration not stated): the TEAD-luciferase reporter activity is inactive: 0.592 (compound concentration: 200 nM), inactive: -0.355 (compound concentration: 2 uM) and inactive: -0.951 (compound concentration: 10 uM).

Take `Cc1ccccc1C(=O)N1CCC(C(=O)N2CCC(N3Cc4ccccc4C3=O)CC2)CC1`: the TEAD-luciferase reporter activity (compound concentration: 200 nM) was inactive: -0.0134 and the TEAD-luciferase reporter activity (compound concentration: 10 uM) is inactive: 3.66.

For the compound `C[C@H](c1ccc(F)cc1)N(Cc1cccc(C(=O)O)c1)C(=O)c1cnc2ccccc2c1`, the TEAD-luciferase reporter activity is inactive: -1.34 (compound concentration: 200 nM), inactive: 0.685 (compound concentration: 2 uM) and inactive: 0.331 (compound concentration: 10 uM).

With `CCCCCCCCCCOc1c(OC)cc(C(N)=O)cc1OC`, the TEAD-luciferase reporter activity reads like this: (compound concentration: 200 nM) inactive: -0.155; (compound concentration: 2 uM) inactive: -0.839; (compound concentration: 10 uM) inactive: 1.25.

As to `CCOC(=O)C1=C(C)NC(C)=C(C(=O)OCCN2C(=O)c3ccccc3S2(=O)=O)C1C` (configuration not stated) [Trombodipine], the TEAD-luciferase reporter activity runs as follows: (compound concentration: 200 nM) inactive: 1.22; (compound concentration: 2 uM) inactive: -0.549; (compound concentration: 10 uM) inactive: -0.579.

Consider `CN(O)C(=O)CCc1ccc2c(c1)C(=O)c1ccccc1CO2`, for which the TEAD-luciferase reporter activity is inactive: -1.56 (compound concentration: 200 nM), inactive: -0.224 (compound concentration: 2 uM) and inactive: 0.896 (compound concentration: 10 uM).

For the compound `Cn1c(=O)c(C(=O)NCCO)c(O)c2ncc(Cc3ccc(F)cc3)cc21`, the TEAD-luciferase reporter activity is, setting by setting: (compound concentration: 200 nM) inactive: -0.0469; (compound concentration: 2 uM) inactive: -0.802; (compound concentration: 10 uM) inactive: 0.277.

Turning to `CCCCN1CCC(COC(=O)c2cc(Cl)c(N)c3c2OCCO3)CC1`, the TEAD-luciferase reporter activity (compound concentration: 200 nM) was inactive: -0.637, the TEAD-luciferase reporter activity (compound concentration: 2 uM) was inactive: 0.974 and the TEAD-luciferase reporter activity (compound concentration: 10 uM) is inactive: 0.383.

Turning to `CC[N+](C)(C)c1cccc(O)c1`, the TEAD-luciferase reporter activity by setting is: (compound concentration: 200 nM) inactive: -2.35; (compound concentration: 2 uM) inactive: -1.52; (compound concentration: 10 uM) inactive: -1.13.

As for `N[C@@H](Cc1cc(CP(=O)(O)O)cc(-c2ccccc2Cl)c1)C(=O)O`, the TEAD-luciferase reporter activity is, setting by setting: (compound concentration: 200 nM) inactive: 0.323; (compound concentration: 2 uM) inactive: -1.4; (compound concentration: 10 uM) inactive: 2.71.

In the case of `N=C(N)NCCC[C@@H](N)C(=O)N[C@H](CCCNC(=N)N)C(=O)N[C@H](CCCNC(=N)N)C(=O)N[C@H](CCCNC(=N)N)C(=O)N[C@H](CCCNC(=N)N)C(=O)N[C@H](CCCNC(=N)N)C(N)=O` [Hexa-D-Arginine], the TEAD-luciferase reporter activity (compound concentration: 200 nM) was inactive: -0.908, the TEAD-luciferase reporter activity (compound concentration: 2 uM) is inactive: -0.645 and the TEAD-luciferase reporter activity (compound concentration: 10 uM) is inactive: -0.766.

Consider `O=C1CCCC=C1C1COCCN1O` (configuration not stated), for which the TEAD-luciferase reporter activity is inactive: -0.986 (compound concentration: 200 nM), inactive: -0.18 (compound concentration: 2 uM) and inactive: 0.316 (compound concentration: 10 uM).

For `CC(C)(C)C#Cc1cc(N(C(=O)[C@H]2CC[C@H](C)CC2)[C@H]2CC[C@@H](O)CC2)c(C(=O)O)s1` [lomibuvir (tablet)], the TEAD-luciferase reporter activity reads like this: (compound concentration: 200 nM) active: 7.66; (compound concentration: 2 uM) inactive: 2.33; (compound concentration: 10 uM) inactive: -0.962.

Consider `CNC(=O)c1ccc2c(c1)CCO[C@H]2CCN1CCN(c2ccc(C(N)=O)cc2)CC1`, for which the TEAD-luciferase reporter activity (compound concentration: 200 nM) was inactive: 0.295, the TEAD-luciferase reporter activity (compound concentration: 2 uM) was inactive: 0.73 and the TEAD-luciferase reporter activity (compound concentration: 10 uM) is inactive: 0.344.

Take `C[C@@H]1O[C@@H](OC[C@H]2O[C@@H](Oc3c(-c4ccc(O)c(O)c4)oc4cc(O)cc(O)c4c3=O)[C@H](O)[C@@H](O)[C@@H]2O)[C@H](O)[C@H](O)[C@H]1O`: the TEAD-luciferase reporter activity runs as follows: (compound concentration: 200 nM) inactive: -0.427; (compound concentration: 10 uM) inactive: 0.701.

On to `C[C@@H]1O[C@@H](OC[C@H]2O[C@@H](Oc3c(-c4ccc(O)c(O)c4)oc4cc(O)cc(O)c4c3=O)[C@H](O)[C@@H](O)[C@@H]2O)[C@H](O)[C@H](O)[C@H]1O` [Rutin], for which the TEAD-luciferase reporter activity (compound concentration: 2 uM) is inactive: 0.993.

Take `CCOc1cc(N)c([N+](=O)[O-])cc1C(=O)NC1CCN(CC2CC=CCC2)CC1` (configuration not stated) [Cinitapride hydrogen tartrate]: the TEAD-luciferase reporter activity by setting is: (compound concentration: 200 nM) inactive: -1.45; (compound concentration: 2 uM) inactive: 0.158; (compound concentration: 10 uM) inactive: 2.65.

For `CN(C)CCO/N=C(\C=C\c1ccc(O)cc1)c1ccccc1F` [Eplivanserin], the TEAD-luciferase reporter activity runs as follows: (compound concentration: 200 nM) inactive: -0.328; (compound concentration: 2 uM) inactive: -1.69; (compound concentration: 10 uM) inactive: 1.87.

Consider `O=C(O)[C@@H]1CCCN1` [proline], for which the TEAD-luciferase reporter activity runs as follows: (compound concentration: 200 nM) inactive: -1.02; (compound concentration: 2 uM) inactive: -1.23; (compound concentration: 10 uM) inactive: 1.15.

With `CC(NC(=O)C1CSCN1C(=O)c1ccccc1)c1ccccc1` (configuration not stated), the TEAD-luciferase reporter activity was inactive: -0.53 (compound concentration: 200 nM), inactive: -1.42 (compound concentration: 2 uM) and inactive: 1.5 (compound concentration: 10 uM).

With `O=C1NCc2ccccc2CC12CCCCN2CC1CCOCC1` (configuration not stated), for the setting “compound concentration: 200 nM”, the TEAD-luciferase reporter activity is inactive: 0.262.

For `CC(C)C(=O)OCC(=O)[C@@]12OC(C3CCCCC3)O[C@@H]1C[C@H]1[C@@H]3CCC4=CC(=O)C=C[C@]4(C)[C@H]3[C@@H](O)C[C@@]12C` (some centres not stated) [Ciclesonide], the TEAD-luciferase reporter activity was inactive: 0.49 (compound concentration: 200 nM), inactive: 0.406 (compound concentration: 2 uM) and inactive: -0.852 (compound concentration: 10 uM).

Take `Cc1cc(-c2ccccc2[C@@H](C)OC[C@H](O)CNC(C)(C)Cc2ccc(Cl)c(F)c2)ccc1C(=O)O` [Encaleret sulfate]: the TEAD-luciferase reporter activity was inactive: 1.77 (compound concentration: 200 nM), inactive: -0.275 (compound concentration: 2 uM) and inactive: -0.662 (compound concentration: 10 uM).

`CNC(=O)c1cc(Oc2ccc(NC(=O)Nc3cc(C(C)(C)C)nn3-c3ccc4ncccc4c3)c(F)c2)ccn1` [DCC-2036 (Rebastinib)]: the TEAD-luciferase reporter activity was inactive: -0.0388 (compound concentration: 200 nM) and inactive: -3.55 (compound concentration: 10 uM).

As to `CNC(=O)c1cc(Oc2ccc(NC(=O)Nc3cc(C(C)(C)C)nn3-c3ccc4ncccc4c3)c(F)c2)ccn1` [rebastinib], under “compound concentration: 2 uM”, the TEAD-luciferase reporter activity is inactive: -2.66.

With `CC1(C)CN(C(=O)c2ccc(-c3cccc4nc(NC(=O)C5CC5)nn34)cc2)C1` [Solcitinib], the TEAD-luciferase reporter activity is inactive: 0.132 (compound concentration: 200 nM), inactive: -1.76 (compound concentration: 2 uM) and inactive: 1.91 (compound concentration: 10 uM).

Take `CCc1nc2cc(N3CCSCC3)nc(CC)n2n1`: the TEAD-luciferase reporter activity reads like this: (compound concentration: 200 nM) inactive: -0.643; (compound concentration: 2 uM) inactive: -0.0572; (compound concentration: 10 uM) inactive: -0.887.

Regarding `Nc1ccc(S(=O)(=O)Nc2ccnn2-c2ccccc2)cc1`, the TEAD-luciferase reporter activity by setting is: (compound concentration: 200 nM) inactive: -0.332; (compound concentration: 10 uM) active: 5.11.

As to `Nc1ccc(S(=O)(=O)Nc2ccnn2-c2ccccc2)cc1` [Sulfaphenazole], under “compound concentration: 2 uM”, the TEAD-luciferase reporter activity was inactive: -1.86.

On to `CN1CCCCC1CCc1ccccc1NC(=O)/C=C/c1ccccc1` (configuration not stated), for which the TEAD-luciferase reporter activity (compound concentration: 200 nM) was inactive: 0.0513, the TEAD-luciferase reporter activity (compound concentration: 2 uM) is inactive: 0.591 and the TEAD-luciferase reporter activity (compound concentration: 10 uM) was inactive: -1.04.

For `CC[C@H]1NC(=O)c2cccc(c2)CNC(=O)[C@H](CC(=O)O)NC(=O)CNC(=O)[C@H](CCCNC(=N)N)N(C)C1=O`, the TEAD-luciferase reporter activity was inactive: 0.544 (compound concentration: 200 nM), inactive: -1.21 (compound concentration: 2 uM) and inactive: 1.4 (compound concentration: 10 uM).

Take `O=C(c1ccc(F)cc1)c1ccccc1F` [2,4'-Difluorobenzophe]: the TEAD-luciferase reporter activity was inactive: -1.27 (compound concentration: 200 nM), inactive: 0.0884 (compound concentration: 2 uM) and inactive: -0.27 (compound concentration: 10 uM).

Turning to `C[C@]12CC[C@@H]3c4ccc(O)cc4CC[C@H]3[C@@H]1CC[C@@H]2OC(=O)CCc1ccccc1`, the TEAD-luciferase reporter activity is inactive: 0.0417 (compound concentration: 200 nM) and inactive: 0.599 (compound concentration: 10 uM).

Take `C[C@]12CC[C@@H]3c4ccc(O)cc4CC[C@H]3[C@@H]1CC[C@@H]2OC(=O)CCc1ccccc1` [Estradiol 17-phenylpropionate]: for the setting “compound concentration: 2 uM”, the TEAD-luciferase reporter activity is inactive: -0.538.
